# Source: publication PMC7790423
# Results are given in words; binding and its absence hold for the method and conditions named. In cells and extracts the contact can be indirect. Some results given as binding are weak or reduced against the parent protein; the word gives no strength.
# Target: endogenous NEMO (human (endogenous in C8166 and MT-2)) (UniProt Q9Y6K9)
# Assay: co-IP; endogenous proteins, lysates of C8166 and MT-2 cells; RIPA buffer; IP with control IgG, anti-UBE4B, anti-NEMO or anti-Tax, overnight at 4°C; immunoblot
substance,measurement,value
endogenous HTLV-1 Tax of HTLV-1-transformed cell lines (from UniProt P03409 1-353),binding,binds
